No constants are given. Whether binding was seen depends on the method and setting. Some binding calls cover weakened binding; strength is not graded here.
T1: Bcl-w (biotinylated pro-survival Bcl-2 family protein) (UniProt Q92843)
T1 sequence (biotinylated (co-expressed E. coli biotin ligase BirA), looked up): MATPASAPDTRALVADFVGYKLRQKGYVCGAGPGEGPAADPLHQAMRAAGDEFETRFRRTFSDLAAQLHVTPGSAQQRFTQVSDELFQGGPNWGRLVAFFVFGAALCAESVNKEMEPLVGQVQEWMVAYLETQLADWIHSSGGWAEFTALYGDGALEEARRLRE

Amino acid sequences for entries named in this document (tags omitted). Residues count along the entry.
UniProt Q07820, residues 171-327: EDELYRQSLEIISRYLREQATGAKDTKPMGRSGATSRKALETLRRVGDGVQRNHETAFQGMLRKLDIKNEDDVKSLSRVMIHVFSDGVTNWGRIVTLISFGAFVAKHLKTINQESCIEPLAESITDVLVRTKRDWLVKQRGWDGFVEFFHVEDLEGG
UniProt Q07817, residues 1-209: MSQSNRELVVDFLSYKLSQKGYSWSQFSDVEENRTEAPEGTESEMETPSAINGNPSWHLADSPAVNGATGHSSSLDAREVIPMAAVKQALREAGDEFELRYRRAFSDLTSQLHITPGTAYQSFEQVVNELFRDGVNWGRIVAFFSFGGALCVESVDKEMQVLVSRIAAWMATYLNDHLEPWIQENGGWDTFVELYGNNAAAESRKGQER
UniProt P10415, residues 1-217: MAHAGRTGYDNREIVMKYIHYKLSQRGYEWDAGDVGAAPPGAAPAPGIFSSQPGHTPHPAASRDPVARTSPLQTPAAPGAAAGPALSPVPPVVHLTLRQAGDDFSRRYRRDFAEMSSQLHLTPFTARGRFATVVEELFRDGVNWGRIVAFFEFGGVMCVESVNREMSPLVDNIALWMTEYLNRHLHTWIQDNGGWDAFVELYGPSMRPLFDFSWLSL

B1: Bim BH3 14-mer variant M2-1 displayed on eCPX (peptide, not shown: large carriers; small tags and cut ends)
peptide: WIAQLLRRIGDEVN
B2: Bim BH3 14-mer variant M2-2 displayed on eCPX (peptide, not shown: large carriers; small tags and cut ends)
peptide: WVAQLLRRIGDEVN
B3: Bim BH3 14-mer variant M2-3 displayed on eCPX (peptide, not shown: large carriers; small tags and cut ends)
peptide: WMAQILRRIGDEVN
B4: Bim BH3 14-mer variant M2-4 displayed on eCPX (peptide, not shown: large carriers; small tags and cut ends)
peptide: WLAQLLRRIGDEIN
B5: Bim BH3 14-mer variant M2-8 displayed on eCPX (peptide, not shown: large carriers; small tags and cut ends)
peptide: WLAQELRRIGDEVN
B6: Bim BH3 14-mer variant X2-3 displayed on eCPX (peptide, not shown: large carriers; small tags and cut ends)
peptide: WVAQWLRRWGDEFN
B7: Bim BH3 14-mer variant X2-8 displayed on eCPX (peptide, not shown: large carriers; small tags and cut ends)
peptide: WLAQLLRRYGDEFN
B8: Bim BH3 14-mer E151L displayed on eCPX (peptide, not shown: large carriers; small tags and cut ends)
peptide: WIAQLLRRIGDEFN
B9: Bim BH3 14-mer E151T displayed on eCPX (peptide, not shown: large carriers; small tags and cut ends)
peptide: WIAQTLRRIGDEFN
B10: Bim BH3 14-mer E151W displayed on eCPX (peptide, not shown: large carriers; small tags and cut ends)
peptide: WIAQWLRRIGDEFN
B11: Bim BH3 14-mer E151I displayed on eCPX (peptide, not shown: large carriers; small tags and cut ends)
peptide: WIAQILRRIGDEFN
B12: Bim BH3 14-mer variant X2-5 displayed on eCPX (peptide, not shown: large carriers; small tags and cut ends)
peptide: WYAQILRRMGDEFN
B13: Bim BH3 14-mer variant X2-9 displayed on eCPX (peptide, not shown: large carriers; small tags and cut ends)
peptide: WIAQILRRWGDEFN
B14: Bim BH3 14-mer variant X2-10 displayed on eCPX (peptide, not shown: large carriers; small tags and cut ends)
peptide: WVAQTLRRWGDEFN

Target: Mcl-1 (biotinylated pro-survival Bcl-2 family protein) (UniProt Q07820)
Test: flow cytometry of individual M2 clones on E. coli, 1.25 nM Mcl-1

Binder | binding
B1 | binds
B2 | binds
B3 | binds
B4 | binds
B5 | binds

Target: Bcl-xL (biotinylated pro-survival Bcl-2 family protein) (UniProt Q07817)
Test: apparent Kd, bacterial surface display and flow cytometry

Binder | binding
B6 | binds
B7 | binds
B4 | binds
B8 | binds
B9 | binds
B10 | binds
B11 | binds

Target: Bcl-2 (biotinylated pro-survival Bcl-2 family protein) (UniProt P10415)
Test: as above

Binder | binding
B6 | binds
B7 | binds
B4 | binds

Target: T1, Bcl-w (biotinylated pro-survival Bcl-2 family protein)
Test: as above

Binder | binding
B6 | binds
B7 | binds
B4 | binds

Target: Mcl-1 (biotinylated pro-survival Bcl-2 family protein) (UniProt Q07820)
Test: as above

Binder | binding
B6 | binds
B7 | binds
B2 | binds
B4 | binds
B9 | binds
B10 | binds

Target: Bcl-xL (biotinylated pro-survival Bcl-2 family protein) (UniProt Q07817)
Test: flow cytometry of individual X2 clones on E. coli, 6.25 nM Bcl-xL

Binder | binding
B6 | binds
B12 | binds
B7 | binds
B13 | binds
B14 | binds

Source: patent US20150045310A1
